## Results of single-concentration screens

Chains of the proteins cited; added tags and fusions are not shown. Residues count along the entry.
UniProt I6X8D2, whole entry: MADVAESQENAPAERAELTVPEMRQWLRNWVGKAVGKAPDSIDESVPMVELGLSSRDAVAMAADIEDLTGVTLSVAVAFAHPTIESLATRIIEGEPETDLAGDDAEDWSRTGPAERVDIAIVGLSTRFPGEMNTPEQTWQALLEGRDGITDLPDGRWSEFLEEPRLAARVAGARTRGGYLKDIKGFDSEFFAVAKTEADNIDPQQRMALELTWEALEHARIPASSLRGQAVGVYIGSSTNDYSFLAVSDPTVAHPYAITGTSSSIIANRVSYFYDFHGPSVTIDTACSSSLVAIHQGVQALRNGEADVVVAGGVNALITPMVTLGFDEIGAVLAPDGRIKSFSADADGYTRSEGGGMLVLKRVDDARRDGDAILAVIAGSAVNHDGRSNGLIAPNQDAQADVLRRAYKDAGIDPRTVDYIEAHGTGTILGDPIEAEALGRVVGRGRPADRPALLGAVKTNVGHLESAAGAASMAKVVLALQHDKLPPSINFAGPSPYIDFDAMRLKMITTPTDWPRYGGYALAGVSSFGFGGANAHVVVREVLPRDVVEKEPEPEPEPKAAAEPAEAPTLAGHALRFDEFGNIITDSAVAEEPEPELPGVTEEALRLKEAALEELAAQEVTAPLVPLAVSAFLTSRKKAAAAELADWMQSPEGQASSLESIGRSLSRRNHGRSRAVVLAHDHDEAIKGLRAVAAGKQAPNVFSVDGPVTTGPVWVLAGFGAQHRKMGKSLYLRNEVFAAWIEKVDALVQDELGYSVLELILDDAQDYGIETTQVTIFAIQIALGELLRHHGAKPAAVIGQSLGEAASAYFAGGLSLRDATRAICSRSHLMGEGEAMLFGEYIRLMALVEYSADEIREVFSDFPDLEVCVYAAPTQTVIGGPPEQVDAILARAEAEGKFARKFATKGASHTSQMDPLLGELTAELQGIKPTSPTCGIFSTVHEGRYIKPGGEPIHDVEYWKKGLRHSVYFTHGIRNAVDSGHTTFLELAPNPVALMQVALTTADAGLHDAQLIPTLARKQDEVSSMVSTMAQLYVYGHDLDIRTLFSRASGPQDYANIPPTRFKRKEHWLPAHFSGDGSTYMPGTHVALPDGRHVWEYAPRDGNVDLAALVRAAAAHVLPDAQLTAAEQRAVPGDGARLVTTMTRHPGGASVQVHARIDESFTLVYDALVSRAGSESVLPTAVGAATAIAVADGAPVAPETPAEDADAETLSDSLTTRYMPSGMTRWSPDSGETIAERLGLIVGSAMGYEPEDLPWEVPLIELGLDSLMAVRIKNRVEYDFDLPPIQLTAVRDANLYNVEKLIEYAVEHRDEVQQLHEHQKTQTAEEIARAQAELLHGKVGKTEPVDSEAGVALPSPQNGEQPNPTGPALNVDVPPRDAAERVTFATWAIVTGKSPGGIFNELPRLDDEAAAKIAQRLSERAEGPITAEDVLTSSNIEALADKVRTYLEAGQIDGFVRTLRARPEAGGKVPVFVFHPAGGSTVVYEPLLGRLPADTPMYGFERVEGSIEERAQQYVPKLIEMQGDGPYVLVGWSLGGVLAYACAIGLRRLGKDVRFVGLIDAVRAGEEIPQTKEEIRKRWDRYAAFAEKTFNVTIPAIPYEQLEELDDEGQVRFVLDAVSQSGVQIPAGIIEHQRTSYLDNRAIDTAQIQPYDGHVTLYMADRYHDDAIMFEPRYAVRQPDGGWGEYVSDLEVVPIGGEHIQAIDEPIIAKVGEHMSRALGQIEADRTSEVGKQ
UniProt Q4DA54, 1-478: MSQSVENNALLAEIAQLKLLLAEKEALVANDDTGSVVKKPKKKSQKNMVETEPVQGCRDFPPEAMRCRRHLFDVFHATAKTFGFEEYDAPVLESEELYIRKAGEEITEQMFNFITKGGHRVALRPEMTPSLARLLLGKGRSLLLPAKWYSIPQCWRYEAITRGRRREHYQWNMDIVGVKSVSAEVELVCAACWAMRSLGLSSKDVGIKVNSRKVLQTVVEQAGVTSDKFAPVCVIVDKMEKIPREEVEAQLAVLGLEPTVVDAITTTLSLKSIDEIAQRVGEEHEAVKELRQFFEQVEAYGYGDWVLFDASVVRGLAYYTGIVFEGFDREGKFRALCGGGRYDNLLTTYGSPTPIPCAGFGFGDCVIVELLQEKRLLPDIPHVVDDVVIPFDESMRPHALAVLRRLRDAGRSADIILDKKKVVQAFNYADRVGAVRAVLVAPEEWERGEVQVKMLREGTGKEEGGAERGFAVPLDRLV
UniProt P9WFT3, whole entry: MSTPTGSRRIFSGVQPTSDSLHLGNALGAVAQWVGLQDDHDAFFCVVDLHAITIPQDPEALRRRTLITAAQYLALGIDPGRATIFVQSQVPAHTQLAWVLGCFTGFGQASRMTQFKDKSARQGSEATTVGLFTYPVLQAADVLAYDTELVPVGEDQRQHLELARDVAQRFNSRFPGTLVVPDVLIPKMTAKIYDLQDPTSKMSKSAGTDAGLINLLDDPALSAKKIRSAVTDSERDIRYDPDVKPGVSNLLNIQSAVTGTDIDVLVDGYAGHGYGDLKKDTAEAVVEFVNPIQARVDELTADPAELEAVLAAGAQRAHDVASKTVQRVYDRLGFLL
UniProt P9WPC5, whole entry: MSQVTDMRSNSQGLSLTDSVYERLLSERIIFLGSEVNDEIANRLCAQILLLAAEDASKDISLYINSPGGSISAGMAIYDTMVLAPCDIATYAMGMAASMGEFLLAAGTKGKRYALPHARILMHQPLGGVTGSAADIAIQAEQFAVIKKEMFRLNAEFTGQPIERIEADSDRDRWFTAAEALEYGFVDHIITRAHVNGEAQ
UniProt P9WPC3, whole entry partner: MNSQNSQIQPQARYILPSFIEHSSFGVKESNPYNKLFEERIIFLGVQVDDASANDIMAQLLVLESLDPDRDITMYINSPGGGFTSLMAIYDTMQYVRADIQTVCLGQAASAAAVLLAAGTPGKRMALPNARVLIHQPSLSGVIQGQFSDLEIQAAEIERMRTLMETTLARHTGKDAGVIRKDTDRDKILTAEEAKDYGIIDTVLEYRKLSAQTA

Source: ChEMBL document CHEMBL3988442, “University of Dundee, Small-Polar-MMV Screening Library” (2021).

Pks13 thioesterase: 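Enzyme assay of the thioesterase domain of polyketide synthase 13; the read-out is not stated. Target: Polyketide synthase Pks13, Mycobacterium tuberculosis (UniProt I6X8D2). Compounds at 30 µM. Higher reads as stronger inhibition (inferred from which compounds were picked for retests). About 67,000 compounds were tested under these conditions; 0.46% (about 300) showed 50% or more at least once.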
TcHisRS: 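Enzyme assay of histidyl-tRNA synthetase; the read-out is not stated. Target: Histidine-tRNA ligase, Trypanosoma cruzi CL Brener (UniProt Q4DA54). Concentration: 30 µM. Direction is inferred from retests: higher values go with stronger inhibition. Of about 69,000 compounds tested this way, about 31 (0.045%) reached 50% or more in at least one test.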
MtTrpRS: 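Tryptophan-tRNA ligase, Mycobacterium tuberculosis (UniProt P9WFT3). Enzyme assay of tryptophanyl-tRNA synthetase; the read-out is not stated. Tested at 10 µM. Higher most likely means stronger inhibition; the record gives no direction and few retests gave an IC50. About 65,000 compounds were tested under these conditions; 0.098% (about 64) showed 50% or more at least once.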
ClpP1P2: 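ClpP1P2, Mycobacterium tuberculosis (UniProt P9WPC5 and UniProt P9WPC3). Protease assay of ClpP1P2, read by the AMC dye that it sets free. Compounds at 50 µM. Direction is inferred from only a few compounds that gave an IC50; most scored high, so higher reads as stronger inhibition. Most other retested compounds had strongly negative values. Size under these conditions: about 69,000 compounds, about 10 of them at 50% or above in at least one test.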

Results are given as percent effect. How 0% and 100% were set is not recorded. Most values in the screen are low, and negative values occur. Compounds were drawn at random from those tested, without regard to their results. A dash means the value is not listed here; it may have been measured.

| # | compound | Pks13 thioesterase | TcHisRS | MtTrpRS | ClpP1P2 |
|---|---|---|---|---|---|
| 1 | `COc1ccccc1C1=NOC(CC2(C(=O)NC(C)C)CCOCC2)C1` (stereo not drawn) | 9.529 | 8.209 | -3.304 | 3.985 |
| 2 | `CCS(=O)(=O)NC[C@]12COC[C@H]1CN(Cc1ccccn1)C2` | -19.54 | 6.897 | -3.539 | -7.061 |
| 3 | `CN(C)c1ncccc1CNC(=O)N1CCCC1c1cccs1` (stereo not drawn) | -22.28 | 6.916 | -3.894 | -20.88 |
| 4 | `Cc1cc(NC(=O)N(C)C2CCCN(c3ccccc3)C2=O)n(C)n1` (stereo not drawn) | -39.35 | 2.618 | 2.468 | 3.182 |
| 5 | `Cc1c(NCCCOc2cccc(C#N)c2)cccc1C(N)=O` | -21.5 | 5.319 | -2.639 | -7.051 |
| 6 | `CO[C@@H]1c2ccccc2C2(CCN(C(=O)CNC(=O)C(C)C)CC2)[C@H]1O` | -11.09 | 0.8696 | 0.3564 | -3.635 |
| 7 | `O=C1CC2(CCSC2)C(=O)N1Cc1coc(-c2cccc(F)c2)n1` (stereo not drawn) | -31.99 | 3.867 | 0.1032 | 0.8223 |
| 8 | `CC(NCC1CCN(CCO)CC1)c1ccc(Cl)cc1` (stereo not drawn) | - | 3.279 | 0.7452 | -8.757 |
| 9 | `CN1CCC(N(C)CCC(=O)N2CCC(CCc3ccccc3)CC2)C1` (stereo not drawn) | 1.75 | 22.08 | 6.452 | 7.129 |
| 10 | `O=C(c1nn(-c2ccccc2F)cc1O)N1CCC2(CC1)OCCO2` | -8.601 | -0.5848 | -3.129 | -1.992 |
| 11 | `O=C(CCc1ccncc1)NCCOc1ncc(Cl)cc1Cl` | -13.92 | 5.155 | -2.584 | -1.203 |
| 12 | `CCCn1ncc(-c2ccnc(NC3CCSC3)n2)c1C` (stereo not drawn) | -3.687 | 4.865 | 0.7852 | -15.04 |
| 13 | `CCN(CC)S(=O)(=O)N1CCCC1c1nnc2n1CCCCC2` (stereo not drawn) | -19.84 | 11.67 | 0.1899 | -1.838 |
| 14 | `CN(C)C1Cc2ccccc2N(S(=O)(=O)c2cccc(C#N)c2)C1` (stereo not drawn) | -18.45 | 1.031 | -4.933 | -10.6 |
| 15 | `Cc1[nH]c(=O)[nH]c(=O)c1CN1CCCC(CCc2c(F)cccc2F)C1` (stereo not drawn) | -20.27 | 3.333 | -0.5418 | -0.279 |
| 16 | `Cc1ncc2c(n1)CN(Cc1nnc(-c3ccccc3)o1)CC2` | -11.54 | 14.29 | -1.838 | -44.13 |
| 17 | `Cc1ccc(-c2noc(CN3CCCC(Cn4cncn4)C3)n2)cc1` (stereo not drawn) | -4.198 | 3.429 | 4.47 | -12.29 |
| 18 | `O=C1CC2(CCCCN2C(=O)c2ccsc2)CN1CC1CC1` (stereo not drawn) | -6.375 | 6.767 | -0.229 | 2.154 |
| 19 | `Cc1cnn(CC2CCCN2C(=O)CCCc2nc(C)no2)c1` (stereo not drawn) | -18.66 | 9.783 | 3.496 | 16.16 |
| 20 | `CC1CCN(C(=O)CN2CCC(c3n[nH]c(C4CC4)n3)CC2)CC1` | -1.731 | 5.747 | -0.07097 | 1.561 |
| 21 | `Cc1cccnc1CNc1ccc(C(=O)N2CCc3ccccc32)cn1` | -36.71 | 10.27 | -3.569 | -4.533 |
| 22 | `CNc1nc(C)cc(NCc2cc(C)cc3c(C)c(C)[nH]c23)n1` | -9.086 | 1.807 | 0.9272 | 5.452 |
| 23 | `Cn1cnc(-c2nc(C(=O)NCC3CCCO3)c3ccccn23)c1` (stereo not drawn) | 5.499 | -2.062 | -3.843 | -132.3 |
| 24 | `CCc1ccc(C(C)NC(=O)N2CCC(n3cncn3)CC2)cc1` (stereo not drawn) | -9.11 | 0.5848 | -16.47 | 15.54 |
| 25 | `CC(Cn1ccnc1)NC(=O)N1CCN(Cc2ccco2)CC1` (stereo not drawn) | - | 2.367 | 0.06277 | -15.46 |
| 26 | `C/C=C(\C)CN1C[C@@H](NC(=O)c2ccc(F)c(F)c2)C[C@H]1C(=O)NCC` | -16.39 | 7.895 | -0.8256 | -1.388 |
| 27 | `Fc1cnc(N2CCCC3(CCN(c4ncccn4)C3)C2)nc1` (stereo not drawn) | 6.272 | 7.035 | 5.241 | 2.863 |
| 28 | `CSc1ccc(CNC(c2ccccc2F)c2nccn2C)cc1` (stereo not drawn) | -18.62 | 6.706 | 9.579 | -5.215 |
| 29 | `CC(=O)NCCNC(=O)c1cc(C)ccc1SC1CCCC1` | -5.09 | 8.772 | 0.9104 | -5.678 |
| 30 | `O=C(Nc1cnn(CCN2CCOCC2)c1)c1ccccc1Cl` | 0.438 | 5.325 | -6.591 | -13.11 |
| 31 | `Cc1ccc(S(=O)(=O)c2ncccc2CN2CCCC2)cc1` | -9.403 | -0.5848 | 3.571 | -17.76 |
| 32 | `Cc1nc(CN(C)C(=O)C2CC(=O)N(c3cccc(O)c3)C2)cs1` (stereo not drawn) | -6.558 | 2.513 | -1.957 | 1.009 |
| 33 | `Cn1cc(CN(C(=O)C2COc3ccccc3C2)C2CC2)cn1` (stereo not drawn) | -27.49 | 0.5236 | -5.533 | -3.878 |
| 34 | `Cc1csc2c(=O)n(CCN3CCC(c4ccccc4)CC3)cnc12` | -21.54 | -5.195 | 1.528 | 8.287 |
| 35 | `O=C(C1CCCO1)N1CCC2(CC1)CNCCO2` (stereo not drawn) | 2.237 | 3.681 | 20.83 | -1.112 |
| 36 | `O=C(c1cc(C2CC2)on1)N1CCCC(n2cccn2)C1` (stereo not drawn) | -35.49 | 9.677 | 3.209 | 3.244 |
| 37 | `CC(NC(=O)NCCCN(C(C)C)S(C)(=O)=O)c1ccncc1` (stereo not drawn) | -15.7 | 1.69 | -3.834 | 3.239 |
| 38 | `Cc1ccc(-c2cc(C(F)(F)F)nc(N3CCOCC3)n2)s1` | -0.1677 | -11.88 | -0.7199 | -15.46 |
| 39 | `CN1C(=O)CC(c2cnn(C)c2)C12CCN(C(=O)c1ccc[nH]1)CC2` (stereo not drawn) | -11.48 | 6.897 | -4.758 | 6.215 |
| 40 | `CC(C)c1nc(C2CCCN2CC(=O)N2CCc3ccccc32)no1` (stereo not drawn) | -4.254 | 1.141 | -6.447 | 5.147 |
| 41 | `Cc1cc(C(=O)NC2CCN(c3ncccc3C#N)CC2)no1` | -12.42 | 10.12 | -0.2863 | -2.84 |
| 42 | `CC1CN(Cc2cccc(CNC3CCCC3)c2)CCO1` (stereo not drawn) | -5.32 | -0.6061 | 2.397 | -7.211 |
| 43 | `CN(C)C(C(=O)NCCSc1ncn[nH]1)c1cccc(F)c1` (stereo not drawn) | -14.65 | 0.5025 | -5 | -1.469 |
| 44 | `CC(=O)N(Cc1noc(C2CC2)n1)C1CCN(Cc2ccncc2)C1` (stereo not drawn) | -24.08 | -1.527 | -0.5197 | -9.768 |
| 45 | `O=S(=O)(Cc1ccccc1Cl)CC(O)CO` (stereo not drawn) | -21.42 | 4.663 | -3.317 | 1.486 |
| 46 | `COc1ccc2[nH]cc(C(=O)N3C[C@@H](O)[C@H](N4CCOCC4)C3)c2c1` | -207.5 | 10.9 | -2.264 | -0.3909 |
| 47 | `O=C(c1cccnc1)N1CCCC1c1cc[nH]n1` (stereo not drawn) | -16.78 | 1.521 | 4.549 | 9.61 |
| 48 | `CC(C)C1SCC(=O)Nc2c1c(O)nn2C1CCCC1` (stereo not drawn) | 2.555 | -1.22 | -1.977 | -8.372 |
| 49 | `CC(C)c1nc(C2CCCN(C(=O)c3ccc4c(c3)COC4)C2)no1` (stereo not drawn) | - | 1.994 | 1.647 | -2.203 |
| 50 | `O=C(Nc1ccc(-c2ccn[nH]2)cc1)C1CCCN(Cc2ccoc2)C1` (stereo not drawn) | -25.93 | 8.287 | 2.785 | -0.5774 |

Repeated from the top, 3 entries:

* COc1ccccc1C1=NOC(CC2(C(=O)NC(C)C)CCOCC2)C1 (stereo not drawn) | Pks13 thioesterase: 9.529%; TcHisRS: 8.209%; MtTrpRS: -3.304%; ClpP1P2: 3.985%
* CCS(=O)(=O)NC[C@]12COC[C@H]1CN(Cc1ccccn1)C2 | Pks13 thioesterase: -19.54%; TcHisRS: 6.897%; MtTrpRS: -3.539%; ClpP1P2: -7.061%
* CN(C)c1ncccc1CNC(=O)N1CCCC1c1cccs1 (stereo not drawn) | Pks13 thioesterase: -22.28%; TcHisRS: 6.916%; MtTrpRS: -3.894%; ClpP1P2: -20.88%